# Values of other authors as cited in patent publication EP4233917A1, “ANTI-INFECTIVE CONJUGATE FOR USE IN THE TREATMENT OF ZIKA VIRUS INFECTION” (Universitat Pompeu Fabra, priority 2022, dated 2023).
# Read-outs that look alike come from different tables or passages of the source. At least one structure is not confirmed: it was looked up by name or label, or the drawing left a doubt.
# System: Vesicular Stomatitis Virus
# Settings: cited from earlier work
smiles,measurement,setting,value
"C=CC1=C(C)c2cc3[nH]c(cc4nc(cc5[nH]c(cc1n2)c(C)c5CCC(=O)O)C(CCC(=O)O)=C4C)c(C)c3C=C [PP, protoporphyrin IX]",IC50,under light irradiation,0.0976 nM
same,IC50,without light irradiation,8.29 nM
